Reference: paper PMC12198159
These are yes or no findings as the source states them, for the method shown. Binding seen in cells or lysates may run through a third protein. Some binding calls cover weakened binding; strength is not graded here.

Target: T1, TKs5 (tyrosine kinase substrate with five SH3 domains) (human (endogenous in A549 and HeLa)) (UniProt Q5TCZ1)
T1 sequence: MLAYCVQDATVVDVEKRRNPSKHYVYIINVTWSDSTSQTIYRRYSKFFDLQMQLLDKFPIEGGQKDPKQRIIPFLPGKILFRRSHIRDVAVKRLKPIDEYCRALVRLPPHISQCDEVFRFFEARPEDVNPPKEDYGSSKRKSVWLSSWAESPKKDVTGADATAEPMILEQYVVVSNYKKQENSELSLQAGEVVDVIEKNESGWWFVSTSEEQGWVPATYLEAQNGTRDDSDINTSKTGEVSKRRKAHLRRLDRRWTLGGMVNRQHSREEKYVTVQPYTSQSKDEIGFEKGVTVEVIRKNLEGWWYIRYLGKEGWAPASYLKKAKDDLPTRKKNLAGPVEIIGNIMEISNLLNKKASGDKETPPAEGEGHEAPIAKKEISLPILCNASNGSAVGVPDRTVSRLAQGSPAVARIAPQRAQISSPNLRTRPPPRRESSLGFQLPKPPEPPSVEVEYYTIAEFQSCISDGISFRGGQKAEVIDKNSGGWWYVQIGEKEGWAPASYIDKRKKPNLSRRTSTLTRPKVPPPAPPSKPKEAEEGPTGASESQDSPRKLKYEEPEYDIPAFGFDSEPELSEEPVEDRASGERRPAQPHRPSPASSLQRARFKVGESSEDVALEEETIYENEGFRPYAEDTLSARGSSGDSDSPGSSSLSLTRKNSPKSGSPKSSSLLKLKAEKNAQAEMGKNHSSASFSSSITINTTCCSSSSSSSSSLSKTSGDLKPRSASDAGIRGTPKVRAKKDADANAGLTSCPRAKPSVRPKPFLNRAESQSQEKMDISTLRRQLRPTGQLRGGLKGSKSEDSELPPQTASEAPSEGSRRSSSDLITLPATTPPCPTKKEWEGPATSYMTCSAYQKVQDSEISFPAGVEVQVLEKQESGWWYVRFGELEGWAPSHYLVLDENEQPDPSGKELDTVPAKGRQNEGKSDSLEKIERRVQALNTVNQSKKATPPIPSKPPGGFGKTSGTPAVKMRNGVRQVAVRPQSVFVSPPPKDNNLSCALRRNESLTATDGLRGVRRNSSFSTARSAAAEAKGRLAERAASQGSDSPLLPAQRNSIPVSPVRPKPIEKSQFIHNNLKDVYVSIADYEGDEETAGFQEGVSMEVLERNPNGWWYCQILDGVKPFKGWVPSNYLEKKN
Assay: co-IP; Catch and Release Reversible Immunoprecipitation System; A549 and HeLa cells lysed 24 h after transfection in CHAPS lysis buffer (40 mM HEPES pH 7.5, 120 mM NaCl, 1 mM EDTA, 0.3% CHAPS); 1000 ug protein with 4 ug antibody overnight at 4 C; Western blot; rabbit IgG as negative control; cells untreated, mock, or transfected with p17, PTEN, PTEN C124A, p17 + PTEN C124A (FAK-Src) or with p17, p17 + TKs5 (TKs5-Nck1, TKs5-Rab40b)

binding: binds
B1: Rab40b (protein, UniProt Q12829 1-278)
chain: MSALGSPVRAYDFLLKFLLVGDSDVGKGEILASLQDGAAESPYGHPAGIDYKTTTILLDGRRVKLQLWDTSGQGRFCTIFRSYSRGAQGVILVYDIANRWSFDGIDRWIKEIDEHAPGVPKILVGNRLHLAFKRQVPTEQAQAYAERLGVTFFEVSPLCNFNITESFTELARIVLLRHGMDRLWRPSKVLSLQDLCCRAVVSCTPVHLVDKLPLPIALRSHLKSFSMANGLNARMMHGGSYSLTTSSTHKRSSLRKVKLVRPPQSPPKNCTRNSCKIS
